Laboratory results: PubChem BioAssay AID1259254 (NCATS, 2017)

Purpose: 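Finding genes that stop cells copying their DNA twice in one cycle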 (primary screen)
Cell system: human HCT116 colorectal cancer cells
Reagents: single siRNA against human genes
Time to read-out: 3 days
Measurement: 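Imaged Hoechst DNA stain sorts each cell into a cycle phase by DNA amount; per plate, G2 fraction set to 0% for non-targeting and 100% for GMNN siRNA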
Reading the numbers: G2 robust z-score and G2 cells, % of GMNN control: higher = more G2 cells, more excess DNA replication
Rule for the call: 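An siRNA counts as active if its G2 robust z-score lies at least 5 MADs above the screen median; here such calls match roughly 38% of GMNN control or more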
Shown is an unselected part of about 59,000 reagents tested. In the full data, about 1,550 (2.6%) were called active. 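G2 share is only a proxy for re-replication; each gene was hit by three separate siRNAs, and active genes were retested.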 Reagents against one gene are numbered here. Further read-outs or replicates are left out here. The record does not give: the amount of reagent.

RASAL3 (RAS protein activator like 3) #1 — G2 robust z-score = 0.434; G2 cells, % of GMNN control = 6.02; Outcome = inactive
RASAL3 (RAS protein activator like 3) #2 — G2 robust z-score = -0.437; G2 cells, % of GMNN control = -0.106; Outcome = inactive
RASAL3 (RAS protein activator like 3) #3 — G2 robust z-score = -0.066; G2 cells, % of GMNN control = 2.5; Outcome = inactive
ANKRD20A12P (ankyrin repeat domain 20 family member A12, pseudogene) #1 — G2 robust z-score = -0.379; G2 cells, % of GMNN control = 0.299; Outcome = inactive
ANKRD20A12P (ankyrin repeat domain 20 family member A12, pseudogene) #2 — G2 robust z-score = -0.226; G2 cells, % of GMNN control = 1.38; Outcome = inactive
ANKRD20A12P (ankyrin repeat domain 20 family member A12, pseudogene) #3 — G2 robust z-score = 0.921; G2 cells, % of GMNN control = 9.45; Outcome = inactive
KIAA0753 #1 — G2 robust z-score = -0.572; G2 cells, % of GMNN control = -1.06; Outcome = inactive
KIAA0753 #2 — G2 robust z-score = -0.988; G2 cells, % of GMNN control = -3.98; Outcome = inactive
KIAA0753 #3 — G2 robust z-score = -0.76; G2 cells, % of GMNN control = -2.38; Outcome = inactive
CICP18 (capicua transcriptional repressor pseudogene 18) #1 — G2 robust z-score = 5.61; G2 cells, % of GMNN control = 42.4; Outcome = active
CICP18 (capicua transcriptional repressor pseudogene 18) #2 — G2 robust z-score = -0.891; G2 cells, % of GMNN control = -3.3; Outcome = inactive
CICP18 (capicua transcriptional repressor pseudogene 18) #3 — G2 robust z-score = 0.9; G2 cells, % of GMNN control = 9.3; Outcome = inactive
CEP72 (centrosomal protein 72) #1 — G2 robust z-score = 4.98; G2 cells, % of GMNN control = 38; Outcome = inactive
CEP72 (centrosomal protein 72) #2 — G2 robust z-score = 0.836; G2 cells, % of GMNN control = 8.85; Outcome = inactive
CEP72 (centrosomal protein 72) #3 — G2 robust z-score = -0.552; G2 cells, % of GMNN control = -0.916; Outcome = inactive
ZNF460 (zinc finger protein 460) #1 — G2 robust z-score = -0.507; G2 cells, % of GMNN control = -0.603; Outcome = inactive
ZNF460 (zinc finger protein 460) #2 — G2 robust z-score = -0.0947; G2 cells, % of GMNN control = 2.3; Outcome = inactive
ZNF460 (zinc finger protein 460) #3 — G2 robust z-score = -0.0777; G2 cells, % of GMNN control = 2.42; Outcome = inactive
DNAH12 (dynein axonemal heavy chain 12) #1 — G2 robust z-score = -0.638; G2 cells, % of GMNN control = -1.52; Outcome = inactive
DNAH12 (dynein axonemal heavy chain 12) #2 — G2 robust z-score = -0.606; G2 cells, % of GMNN control = -1.29; Outcome = inactive
DNAH12 (dynein axonemal heavy chain 12) #3 — G2 robust z-score = 2.7; G2 cells, % of GMNN control = 21.9; Outcome = inactive
DNAH12 (dynein axonemal heavy chain 12) #4 — G2 robust z-score = 1.05; G2 cells, % of GMNN control = 10.4; Outcome = inactive
DNAH12 (dynein axonemal heavy chain 12) #5 — G2 robust z-score = -0.258; G2 cells, % of GMNN control = 1.15; Outcome = inactive
DNAH12 (dynein axonemal heavy chain 12) #6 — G2 robust z-score = 0.619; G2 cells, % of GMNN control = 7.32; Outcome = inactive

Reformatted: 3 of the entries above
gene symbol | reagent no. | G2 robust z-score | G2 cells, % of GMNN control | Outcome
ZNF460 (zinc finger protein 460) | 2 | -0.0947 | 2.3 | inactive
ZNF460 (zinc finger protein 460) | 3 | -0.0777 | 2.42 | inactive
DNAH12 (dynein axonemal heavy chain 12) | 1 | -0.638 | -1.52 | inactive
